Earlier results, collected in US10745414B2, “Crystal salt form of 2,2-dimethyl-6-((4-((3,4,5-trimethoxyphenyl)amino)-1,3,5-triazine-2-yl)amino)-2H-pyrido[3,2-b][1,4]oxazine-3(4H)-one for human use” (LIMITED “MOLECULAR TECHNOLOGIES”, priority 2016, dated 2020).
For at least one compound, name, drawing or mass did not settle the structure.

Assays:
[1] = phase I clinical trials, healthy men; cited from earlier work
bone tissue resorption = details: cited from earlier work

Structure (SMILES): CN1CCN(CCOc2cc(OC3CCOCC3)c3c(Nc4c(Cl)ccc5c4OCO5)ncnc3c2)CC1 [saracatinib]
- osteoclast-mediated resorption of bone tissue [1]: inhibits osteoclast-mediated resorption of bone tissue in healthy men without any adverse events
- resorption of bone tissue in vitro (bone tissue resorption): inhibits resorption of bone tissue in vitro
